Publication PMC11569188
No constants are given. Whether binding was seen depends on the method and setting. Some results given as binding are weak or reduced against the parent protein; the word gives no strength.

Biological target: Grb2 SH2 domain (BAP-tagged), P62993
Test: fluorescence polarisation; competition: Affimer diluted twofold from 20 µM over 12 wells, 20 nM FYp, 0.25 µM Grb2 SH2; 50 mM Tris, 100 mM NaCl, pH 7.4; 24 °C; both purified
Conditions: remark: other sources report otherwise

binding: binds
B1: fluorescein isothiocyanate-labelled phosphopeptide FYp (FITC-GABA-S-pY-V-N-V-Q) (peptide)
peptide: SYVNVQ
modifications: here or on the partner: FITC-GABA on the N-terminus; phosphotyrosine (pY) at position 2; biotin on the BAP tag (in vivo biotinylation)
